These are yes or no findings as the source states them, for the method shown. Some binding calls cover weakened binding; strength is not graded here.
How the values were obtained:
[1] = biological target: GST-E-cadherin-cytoplasmic domain (cd) T790E (human) (UniProt P12830); assay: pull-down; 100 ng purified β-catenin with 0.5 μg purified GST or GST-E-cadherin-cd in PBS, 4°C 1.5 h; glutathione agarose beads, washed three times in PBS with 1% Triton; blot for β-catenin; both purified
[2] = biological target: GST-E-cadherin-cytoplasmic domain (cd) (human) (UniProt P12830); assay: as above

Protein sequences, listed by entry. Tags and fused reporters are not part of them. Lines headed by an entry give the natural chain unless they say otherwise; changes in a name come on top. Chains listed by the source or under a name are the forms on record and can include a tag or linker. Residues count along the entry.
GST-E-cadherin-cytoplasmic domain (cd) (P12830, residues 734-882): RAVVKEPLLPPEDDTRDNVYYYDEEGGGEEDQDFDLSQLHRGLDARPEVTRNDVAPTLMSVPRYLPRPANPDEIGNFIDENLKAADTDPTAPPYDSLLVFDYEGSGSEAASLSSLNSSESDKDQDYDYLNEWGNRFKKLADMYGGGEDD
GST-E-cadherin-cytoplasmic domain (cd) T790E (P12830, form named): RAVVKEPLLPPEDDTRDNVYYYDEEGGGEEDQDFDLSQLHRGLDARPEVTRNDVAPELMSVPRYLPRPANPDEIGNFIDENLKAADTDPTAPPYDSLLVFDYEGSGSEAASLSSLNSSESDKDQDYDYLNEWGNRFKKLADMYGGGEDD
UniProt P35222: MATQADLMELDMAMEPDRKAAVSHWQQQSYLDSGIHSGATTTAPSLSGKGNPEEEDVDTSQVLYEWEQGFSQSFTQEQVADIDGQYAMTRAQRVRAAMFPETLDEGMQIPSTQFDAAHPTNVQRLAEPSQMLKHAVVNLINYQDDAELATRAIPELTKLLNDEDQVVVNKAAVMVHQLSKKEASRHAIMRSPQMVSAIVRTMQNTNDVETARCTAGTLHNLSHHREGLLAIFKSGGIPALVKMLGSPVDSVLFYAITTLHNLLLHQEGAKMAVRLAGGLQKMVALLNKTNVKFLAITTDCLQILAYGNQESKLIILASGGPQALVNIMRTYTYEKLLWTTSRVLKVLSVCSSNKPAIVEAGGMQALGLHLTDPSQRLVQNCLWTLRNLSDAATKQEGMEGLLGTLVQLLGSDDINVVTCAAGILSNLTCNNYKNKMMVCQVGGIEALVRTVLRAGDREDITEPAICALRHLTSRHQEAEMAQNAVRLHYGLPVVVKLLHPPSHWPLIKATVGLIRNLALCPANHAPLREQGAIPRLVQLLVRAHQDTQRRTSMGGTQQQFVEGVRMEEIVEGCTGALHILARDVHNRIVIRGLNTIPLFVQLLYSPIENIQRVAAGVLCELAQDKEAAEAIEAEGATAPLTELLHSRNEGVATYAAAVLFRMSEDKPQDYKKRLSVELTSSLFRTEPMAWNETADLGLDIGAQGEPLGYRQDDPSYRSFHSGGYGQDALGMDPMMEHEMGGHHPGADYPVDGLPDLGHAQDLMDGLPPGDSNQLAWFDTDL

- binding [1]: binds
- binding [2]: binds
Substance: Purified β-catenin (from UniProt P35222 1-781)

Source: PMC5095074 (2016)
